The series relates to SH87 cells. The series can be described thus: Quantification of intracellular maltose by LC-MS. It is filed as cell-based, Chinese Hamster.

Structures are written as SMILES.

These results are taken from patent publication US12454675B2, “Method of increasing protein yield in mammalian cells in serum-free culture medium” (AGENCY FOR SCIENCE, TECHNOLOGY AND RESEARCH, priority 2016, dated 2025).

Take `OC[C@H]1O[C@H](O[C@H]2[C@H](O)[C@@H](O)[C@H](O)O[C@@H]2CO)[C@H](O)[C@@H](O)[C@@H]1O` [maltose]: the “intracellular maltose concentration, times lower than that in the culture medium” value (SH87, 4 g/l glucose + 3 g/l maltose, over 5 days) was “approximately 100 times”. Where the note is “SH87, 1 day after seeding into maltose-supplemented medium”, the intracellular maltose detection result is on record as “detected”.
